± gives the standard deviation of the averaged measurements. The list shows a part of the results, in another mix than the full data.
Compound: Nc1ncnc2c1ncn2[C@@H]1O[C@H](COP(=O)(O)OP(=O)(O)OP(=O)(O)O)[C@@H](O)[C@H]1O [adenosine triphosphate]
Experiment: NP40-soluble protein abundance relative to vehicle (solubility fold change) (ratio); higher = more soluble protein in presence of ATP
In short: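 In three independent experiments, Jurkat crude lysate made by Dounce homogenisation was treated for 10 min at room temperature and then 3 min at 37 °C with eight concentrations ranging from 0.1 to 10 mM. It was then solubilised with 0.8% NP40 plus benzonase for 60 min at 4 °C and ultracentrifuged. The supernatant was TMT-labelled for LC-MS/MS, and each value is the fold change against the detergent-processed vehicle for the same replicate, using vsn-normalised intensities.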

By UniProt entry, the sequences of proteins in these tests, tags left out. Where a name states a change or a piece, a line headed by the entry shows the natural chain unless it says otherwise.
UniProt Q06203, whole entry: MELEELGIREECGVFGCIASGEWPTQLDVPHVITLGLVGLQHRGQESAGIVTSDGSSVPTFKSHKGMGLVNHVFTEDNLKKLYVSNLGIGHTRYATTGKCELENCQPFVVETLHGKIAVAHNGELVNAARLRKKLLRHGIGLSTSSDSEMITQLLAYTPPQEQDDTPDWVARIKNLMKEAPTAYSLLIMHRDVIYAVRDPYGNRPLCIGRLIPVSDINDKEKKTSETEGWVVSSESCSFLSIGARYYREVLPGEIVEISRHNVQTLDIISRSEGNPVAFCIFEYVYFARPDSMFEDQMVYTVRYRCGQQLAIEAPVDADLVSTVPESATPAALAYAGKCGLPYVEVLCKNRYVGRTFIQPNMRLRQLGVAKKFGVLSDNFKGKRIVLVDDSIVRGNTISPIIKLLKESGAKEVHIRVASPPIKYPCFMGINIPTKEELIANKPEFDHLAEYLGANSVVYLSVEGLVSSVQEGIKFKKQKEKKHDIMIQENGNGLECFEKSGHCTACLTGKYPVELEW
UniProt Q05639, whole entry: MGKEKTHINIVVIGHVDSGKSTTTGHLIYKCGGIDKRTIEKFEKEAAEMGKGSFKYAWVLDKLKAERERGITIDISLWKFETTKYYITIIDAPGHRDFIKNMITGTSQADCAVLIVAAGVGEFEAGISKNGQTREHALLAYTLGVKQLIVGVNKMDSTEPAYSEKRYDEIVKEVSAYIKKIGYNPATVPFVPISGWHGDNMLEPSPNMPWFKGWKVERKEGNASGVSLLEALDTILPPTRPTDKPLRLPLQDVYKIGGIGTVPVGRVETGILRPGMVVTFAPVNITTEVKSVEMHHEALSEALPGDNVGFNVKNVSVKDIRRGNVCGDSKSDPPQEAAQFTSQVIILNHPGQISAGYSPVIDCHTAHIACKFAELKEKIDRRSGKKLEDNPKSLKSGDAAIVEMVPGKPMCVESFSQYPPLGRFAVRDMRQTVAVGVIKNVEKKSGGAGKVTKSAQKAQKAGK
UniProt Q13630: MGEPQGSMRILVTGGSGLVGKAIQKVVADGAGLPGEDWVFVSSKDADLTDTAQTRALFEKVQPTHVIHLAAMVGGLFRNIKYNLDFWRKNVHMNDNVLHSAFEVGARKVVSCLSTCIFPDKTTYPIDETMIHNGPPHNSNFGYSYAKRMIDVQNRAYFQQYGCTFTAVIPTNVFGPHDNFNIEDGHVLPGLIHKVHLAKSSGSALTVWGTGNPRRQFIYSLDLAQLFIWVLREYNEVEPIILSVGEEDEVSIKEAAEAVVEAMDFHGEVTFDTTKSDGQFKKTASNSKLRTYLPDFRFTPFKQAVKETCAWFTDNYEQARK
UniProt Q13123, whole entry: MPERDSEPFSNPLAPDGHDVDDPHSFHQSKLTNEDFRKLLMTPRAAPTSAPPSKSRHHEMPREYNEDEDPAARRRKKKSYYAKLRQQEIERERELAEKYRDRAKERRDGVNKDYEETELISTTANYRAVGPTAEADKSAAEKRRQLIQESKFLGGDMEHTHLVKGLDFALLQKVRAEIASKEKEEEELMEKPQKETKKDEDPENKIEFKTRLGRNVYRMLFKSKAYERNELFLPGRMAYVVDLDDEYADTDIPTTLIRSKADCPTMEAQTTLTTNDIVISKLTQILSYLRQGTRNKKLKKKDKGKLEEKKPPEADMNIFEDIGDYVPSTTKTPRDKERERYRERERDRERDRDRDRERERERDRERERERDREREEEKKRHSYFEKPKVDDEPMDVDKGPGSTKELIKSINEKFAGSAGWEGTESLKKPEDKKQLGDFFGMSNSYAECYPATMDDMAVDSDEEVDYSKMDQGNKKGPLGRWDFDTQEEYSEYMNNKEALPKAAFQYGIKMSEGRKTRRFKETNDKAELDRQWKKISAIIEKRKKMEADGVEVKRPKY
UniProt Q02218: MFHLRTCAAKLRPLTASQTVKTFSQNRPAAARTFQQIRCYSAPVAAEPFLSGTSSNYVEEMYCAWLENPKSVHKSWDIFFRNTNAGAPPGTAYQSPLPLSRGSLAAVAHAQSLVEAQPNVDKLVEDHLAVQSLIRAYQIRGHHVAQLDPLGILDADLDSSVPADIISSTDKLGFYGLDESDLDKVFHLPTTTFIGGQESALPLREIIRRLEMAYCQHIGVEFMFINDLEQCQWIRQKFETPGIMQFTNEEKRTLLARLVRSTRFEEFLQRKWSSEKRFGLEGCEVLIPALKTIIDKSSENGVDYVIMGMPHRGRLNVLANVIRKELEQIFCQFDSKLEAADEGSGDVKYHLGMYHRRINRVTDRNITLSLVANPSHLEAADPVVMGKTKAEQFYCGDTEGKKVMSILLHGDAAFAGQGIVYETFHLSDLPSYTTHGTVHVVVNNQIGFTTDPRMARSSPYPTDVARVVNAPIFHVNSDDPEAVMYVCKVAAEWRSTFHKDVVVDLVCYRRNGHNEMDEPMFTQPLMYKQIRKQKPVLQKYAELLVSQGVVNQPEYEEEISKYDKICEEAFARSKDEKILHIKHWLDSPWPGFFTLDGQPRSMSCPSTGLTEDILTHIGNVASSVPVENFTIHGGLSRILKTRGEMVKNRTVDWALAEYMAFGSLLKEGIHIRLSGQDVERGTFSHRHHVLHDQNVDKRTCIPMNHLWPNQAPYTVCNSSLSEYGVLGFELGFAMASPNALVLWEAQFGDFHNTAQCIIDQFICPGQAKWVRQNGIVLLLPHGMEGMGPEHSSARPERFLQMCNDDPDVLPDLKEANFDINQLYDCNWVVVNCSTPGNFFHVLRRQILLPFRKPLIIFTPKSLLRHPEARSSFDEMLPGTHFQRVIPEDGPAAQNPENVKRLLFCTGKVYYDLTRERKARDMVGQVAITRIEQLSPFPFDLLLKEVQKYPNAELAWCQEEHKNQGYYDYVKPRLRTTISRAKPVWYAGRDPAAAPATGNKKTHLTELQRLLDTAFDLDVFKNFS
UniProt Q13283, whole entry, looked up: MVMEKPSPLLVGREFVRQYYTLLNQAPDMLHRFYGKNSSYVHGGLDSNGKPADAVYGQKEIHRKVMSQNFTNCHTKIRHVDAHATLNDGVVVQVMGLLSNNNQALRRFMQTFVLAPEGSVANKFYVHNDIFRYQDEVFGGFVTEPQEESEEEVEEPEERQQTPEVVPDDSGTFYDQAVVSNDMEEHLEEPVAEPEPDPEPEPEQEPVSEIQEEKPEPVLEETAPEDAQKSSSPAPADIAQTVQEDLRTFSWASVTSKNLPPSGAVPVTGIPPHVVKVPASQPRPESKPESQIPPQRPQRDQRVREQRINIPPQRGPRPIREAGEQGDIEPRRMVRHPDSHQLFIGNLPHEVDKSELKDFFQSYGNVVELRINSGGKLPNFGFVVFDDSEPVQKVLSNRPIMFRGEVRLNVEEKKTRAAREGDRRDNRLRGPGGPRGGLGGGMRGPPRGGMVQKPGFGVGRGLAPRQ

Target	NP40-soluble protein abundance (concentration: 1mM)	NP40-soluble protein abundance (concentration: 2mM)	NP40-soluble protein abundance (concentration: 4mM)	NP40-soluble protein abundance (concentration: 6mM)	NP40-soluble protein abundance (concentration: 8mM)	NP40-soluble protein abundance (concentration: 10mM)
PPAT (UniProt Q06203)	0.983 ± 0.084	0.975 ± 0.071	0.951 ± 0.058	0.892 ± 0.068	0.962 ± 0.035	0.967 ± 0.06
EEF1A2 (UniProt Q05639)	1.05 ± 0.064	0.96 ± 0.038	0.9724 ± 0.0075	0.922 ± 0.19	0.866 ± 0.085	0.934 ± 0.019
ACACA (UniProt Q13085)	1.05 ± 0.069	1.01 ± 0.064	1.01 ± 0.057	0.934 ± 0.049	1.02 ± 0.017	0.984 ± 0.045
TSTA3 (UniProt Q13630)	0.934 ± 0.057	0.932 ± 0.081	0.946 ± 0.07	0.88 ± 0.06	0.944 ± 0.058	0.956 ± 0.059
UniProt Q02447-3	0.922 ± 0.074	0.908 ± 0.012	0.889 ± 0.01	0.918 ± 0.03	0.889 ± 0.033	0.889 ± 0.039
IK (UniProt Q13123)	1.04 ± 0.052	1.07 ± 0.046	1.11 ± 0.028	1.27 ± 0.078	1.27 ± 0.027	1.37 ± 0.045
OGDH (UniProt Q02218)	1.12 ± 0.015	1.05 ± 0.017	1.08 ± 0.046	1.03 ± 0.058	1.11 ± 0.11	1.06 ± 0.091
G3BP1 (UniProt Q13283)	1.09 ± 0.029	1.08 ± 0.017	1.13 ± 0.018	1.17 ± 0.016	1.15 ± 0.015	1.17 ± 0.026

Record cards, as listed above. Values in the order: NP40-soluble protein abundance (concentration: 1mM)	NP40-soluble protein abundance (concentration: 2mM)	NP40-soluble protein abundance (concentration: 4mM)	NP40-soluble protein abundance (concentration: 6mM)	NP40-soluble protein abundance (concentration: 8mM)	NP40-soluble protein abundance (concentration: 10mM)
IK (UniProt Q13123) as listed: 1.04 ± 0.052	1.07 ± 0.046	1.11 ± 0.028	1.27 ± 0.078	1.27 ± 0.027	1.37 ± 0.045
OGDH (UniProt Q02218) as listed: 1.12 ± 0.015	1.05 ± 0.017	1.08 ± 0.046	1.03 ± 0.058	1.11 ± 0.11	1.06 ± 0.091

— the supplement of paper PMC6411743
